In PubChem BioAssay AID1487 (National Center for Advancing Translational Sciences (NCATS), 2009):
Some of the results follow. The main result of the screen is listed elsewhere. These columns were measured beside it and carry no call. Most of these compounds were active or inconclusive in the main read-out, so they are no random draw. The note in brackets gives the kind of curve behind each potency; many fits are weak.

Experiment: qHTS Assay for Modulators of Lamin A Splicing
Details: HeLa LMNA splicing GFP/RFP minigene ratio, 48 h
How it was run: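 Read-out is the ratio of GFP to DsRed2 object intensity, acquired by 488 nm laser-scanning cytometry on HeLa lamin A-EGFP minigene reporter cells. Compound incubation 48 hrs at 37 °C in Opti-MEM with 2% FBS; DMSO 0.5% final.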

[1] = measured here: GFP splicing reporter channel
[2] = measured here: RFP viability control channel

| SMILES | AC50 [1] | AC50 [2] |
| --- | --- | --- |
| O=C1c2ccccc2C(=O)C1c1ccccc1 | 1.58 µM [falling, full curve, poor fit] | 3.55 µM [falling, partial curve, poor fit] |
| CN1CCCN(S(=O)(=O)c2cccc(Cl)c2Cl)CC1 | – | 35.5 µM [rising, single point] |
| CCOC(=O)C1C(=O)C=C(/C=C/c2ccc(N(C)C)cc2)CC1c1ccccc1 (stereo not given) | – | 15.8 µM [rising, partial curve, poor fit] |
| NC(=O)NC(=O)CSc1ccccc1 | 6.31 µM [falling, partial curve, poor fit] | – |
| COc1ccc(NC(=O)CCCn2c(=O)c3sccc3n(Cc3ccc(C)cc3C)c2=O)cc1 | – | 35.5 µM [rising, single point] |
| O=C(c1ccc(Br)s1)N(Cc1cccnc1)c1nc2ccc(F)cc2s1 | – | 3.16 µM [falling, single point] |
| CCCn1nc([N+](=O)[O-])c(C(C#N)c2nc3ccccc3s2)c(Cl)c1=O (stereo not given) | 35.5 µM [falling, single point] | 15.8 µM [rising, single point] |
| O=C(CSc1nc2ccccc2[nH]1)Nc1ccc2c(c1)OCCO2 | – | 22.4 µM [rising, single point] |
| CCOc1cccc(NC(=O)C2CC(=O)N(C)C(=Nc3ccc(F)cc3)S2)c1 (stereo not given) | 39.8 µM [falling, partial curve, poor fit] | 8.91 µM [falling, partial curve, poor fit] |
| COc1cccc(C(=O)N/N=C(\CC(C)C)c2ccccc2)c1 | 31.6 µM [rising, single point] | – |
| O=C(CCCN1C(=O)/C(=C\c2ccccc2)SC1=S)Nc1ccc(O)cc1 | – | 28.2 µM [falling, single point] |
| Cc1cccc(Nc2nc(NCc3ccco3)nc(N)c2[N+](=O)[O-])c1 | – | 0.501 µM [falling, full curve] |
| O=[N+]([O-])c1cccc(NC2=NCCC2)c1 | – | 1 µM [falling, full curve] |
| COc1cc(NC(=O)CN2C(=O)NC(C)(c3ccc4ccccc4c3)C2=O)c(C)cc1[N+](=O)[O-] (stereo not given) | 12.6 µM [rising, single point] | 14.1 µM [rising, partial curve] |
| Cc1cc(C(=O)NCCN2CCN(c3cccc(Cl)c3)CC2)n(-c2ccccc2)n1 | – | 2.82 µM [rising, full curve] |
| CCN(CCNC(=O)c1ccc(CSc2nc3ccncc3[nH]2)cc1)c1ccccc1 | – | 12.6 µM [rising, partial curve] |

Full records, looked up by structure.
`O=[N+]([O-])c1cccc(NC2=NCCC2)c1` is listed as AC50 [2]: 1 µM [falling, full curve]
`Cc1cc(C(=O)NCCN2CCN(c3cccc(Cl)c3)CC2)n(-c2ccccc2)n1` is listed as AC50 [2]: 2.82 µM [rising, full curve]
